In PubChem BioAssay AID493014 (National Center for Advancing Translational Sciences (NCATS), 2011) one finds AC50 data, which are given here for 66 molecules.

This test is described as follows: qHTS Assay to Find Inhibitors of Chronic Active B-Cell Receptor Signaling. As to conditions: ABC-DLBCL IkBa-CBG/CBR reporter, luminescence ratio (green luciferase fused to IkBa over red control in TMD8 lymphoma cells), 4 h. The method in brief: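 Compounds up to 46 uM were incubated four hours with TMD8 cells whose green CBG68 luciferase is fused to IkappaBalpha; red CBR luminescence normalised the signal, and concentration-effect curves were fitted to fusion, red and ratio data.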
A general note: Quantitative high-throughput screening tests each substance at several concentrations.

Where [1] appears, read: measured here: IkBa-CBG green luminescence.
Where [2] appears, read: measured here: CBR red luminescence, cell number.

The list shows a part of the results. The main result of the screen is listed elsewhere. These columns were measured beside it and carry no call. Most of these compounds were active or inconclusive in the main read-out, so they are no random draw. Potencies come from curve fits of mixed quality, noted in brackets.

Broadly, the AC50 is the concentration at which the activity in the assay is half-maximal. As to `O=C(COC(=O)c1nc(Cl)c(Cl)c(Cl)c1Cl)NCc1ccccc1`, the AC50 under setting [1] was 29.1 µM [falling, single point]. For `CCOc1cccc2cc(C(=O)Nc3nccs3)c(=O)oc12`, the AC50 under setting [2] was 1 µM [rising, full curve, poor fit]. Same read-out and setting: next, `Cc1cccc(NC(=S)NC2CCCCC2)n1`: 11.2 µM [rising, single point]; `O=C(CSc1ccccc1)Nc1nnc(C2CC2)s1`: 6.31 µM [rising, full curve, poor fit]. In the case of `Cc1ccc(C)c(OCCC(=O)OCC(=O)NC(=O)NCc2ccccc2)c1`, the concentration at half-maximal activity (AC50) under setting [2] was 29.1 µM [falling, single point].

With `Cc1c(C(=O)NCCCN2CCCC2=O)oc2ccccc12`, under setting [2], the half-maximal activity concentration (AC50) was 3.66 µM [rising, full curve, poor fit]. Consider `Cc1cc(C)c(-c2cc(NC(=O)COC(=O)c3ccc(CO)cc3)n(-c3ccccc3)n2)cc1C`, for which, under setting [2], the AC50 is 4.11 µM [rising, full curve, poor fit]. Still for that read-out and setting: next, `Cc1ccc(CNC(=O)CC(C)S(=O)(=O)c2ccc3c(c2)NC(=O)C(C)S3)cc1` (configuration not stated): 17.8 µM [falling, partial curve, poor fit]. Still for that read-out and setting: next, `CCOC(=O)c1nn(-c2ccccc2)c(=O)c2c(NC(C)=O)scc12`: 0.794 µM [falling, full curve, poor fit]; `O=C(Cc1ccccc1)Nc1ccccc1C(=O)NCC1CCCO1` (configuration not stated): 0.708 µM [falling, partial curve, poor fit]. Consider `Cc1cccc(C(=O)NNC(=O)c2ccc(F)cc2)c1`, for which the AC50 under setting [2] was 20.6 µM [falling, single point]. The same measure, in the same setting: for `CC(C)NC(=O)c1[nH]nc2c1CCc1ccccc1-2` the value was 7.94 µM [falling, partial curve]; for `Cn1c(=O)[nH]c2nc[nH]c2c1=O`, 14.6 µM [falling, single point]; for `CC(C)NC(=O)N(C)C[C@H]1Oc2ccc(NC(=O)CCC(F)(F)F)cc2C(=O)N([C@H](C)CO)C[C@@H]1C`, 29.1 µM [rising, single point]. On the same count and under the same terms, next, `OC1(c2ccc3ccccc3c2)CCN(Cc2ccccc2)C1` (configuration not stated): 11.6 µM [falling, single point]; `O=C(N/N=C/c1cccnc1)c1cccs1`: 35.5 µM [falling, single point]; `Nn1cnnc1N/N=C/c1ccc(F)cc1`: 35.5 µM [falling, single point]. The same measure, in the same setting: next, `CC1CCCN(CCCNC(=O)c2coc3nc4ccccc4nc23)C1` (configuration not stated): 8.91 µM [falling, partial curve]; `Cn1c(=NC(=O)COc2ccccc2)sc2ccccc21`: 4.47 µM [falling, full curve].

As to `CC(C)Nc1nc(-c2cccnc2)nc(-c2ccc(Cl)cc2)c1C#N`, the AC50 under setting [2] is 12.6 µM [rising, single point]. Same read-out and setting: for `O=C(N/N=C/c1ccc(F)cc1)c1ccccc1` the value was 6.31 µM [falling, partial curve]; for `C#CCOC(=O)Nc1ccc(=O)n(Cc2c(Cl)cccc2Cl)c1`, 11.2 µM [falling, partial curve, poor fit]. On the same count and under the same terms, for `CCOc1ccc(NC(=O)CN2C(=O)C3CC=CCC3C2=O)cc1` (configuration not stated) the value was 29.1 µM [rising, single point]. For the molecule `O=C(CN(C(=O)CNC(=O)c1ccco1)c1ccc(F)cc1)NC1CCCCC1`, under setting [2], the AC50 was 1.26 µM [falling, partial curve]. Still for that read-out and setting: for `Cc1cc(NS(=O)(=O)c2ccc(NC(=O)/C=C/c3cccc(Cl)c3)cc2)no1` the value was 17.8 µM [falling, partial curve, poor fit]; for `CCOC(=O)C1=C(CC)Nc2ccccc2N=C1NC(=O)c1ccc(S(=O)(=O)N2CCOCC2)cc1`, 0.355 µM [rising, partial curve, poor fit]. Same read-out and setting: next, `Cc1ccc(C(O)(c2ccccc2)c2ccccc2C(C)N(C)C)c(C)c1` (configuration not stated): 10 µM [falling, partial curve]; `COC(=O)CNc1cccc(C(F)(F)F)c1`: 3.16 µM [falling, full curve, poor fit]; `CC(CN(C)C)CN1c2ccccc2Sc2ccccc21` (configuration not stated): 20.6 µM [falling, single point]. Still for that read-out and setting: next, `CC(=O)/C(N=Nc1ccc(SC(F)F)cc1)=C(\C)O`: 1.12 µM [rising, full curve, poor fit]; `COC(=O)c1ccccc1NC(=O)NCc1ccco1`: 29.1 µM [falling, single point]; `CCOC(=O)CN=C(NS(=O)(=O)c1ccc(Cl)cc1)c1ccccc1`: 17.8 µM [rising, partial curve, poor fit]. For the molecule `CC(=O)c1c(N2CCCC2)nc(=S)n(-c2ccccc2)c1C`, the AC50 under setting [2] is 1.16 µM [falling, partial curve, poor fit]. Consider `O=C(Nc1ccc2c(c1)oc1ccccc12)N1CCOCC1`, for which, under setting [2], the AC50 was 35.5 µM [falling, single point]. The same measure, in the same setting: for `Cc1cc(Cl)ccc1OCc1nnc2n1CCCCC2` the value was 6.31 µM [rising, single point]; for `CCc1ccc(C2c3[nH]c4ccccc4c3CCN2C(=O)CN2CCN(CC)CC2)cc1` (configuration not stated), 12.6 µM [falling, single point]. Regarding `CSc1cnn(Cc2ccccc2)c(=O)c1SCc1ccccc1`, the AC50 under setting [1] is 29.1 µM [falling, single point]. With `CCOC(=O)Cc1csc(NC(=O)c2cc3c(s2)CCCC3)n1`, the AC50 under setting [2] was 8.2 µM [falling, partial curve, poor fit]. On the same count and under the same terms, next, `O=C(O)/C=C/C(=O)NNC(=O)c1cc(-c2ccccc2)n[nH]1`: 35.5 µM [falling, single point]. Still for that read-out and setting: next, `CCOC(=O)C1CCN(S(=O)(=O)c2cc3c4c(c2)CC(=O)N4CCC3)CC1`: 1.26 µM [rising, full curve, poor fit]. In the case of `CCN(CC)S(=O)(=O)c1ccc(NN=C2CCN(C)CC2)c([N+](=O)[O-])c1`, the AC50 under setting [2] was 11.2 µM [falling, single point]. Still for that read-out and setting: next, `O=C1C(c2cc(=O)c3ccccc3[nH]2)=C(O)c2ccccc21`: 1.46 µM [falling, full curve]. As to `C=CCn1c(-c2csc3c2CCC(C)C3)n[nH]c1=S` (configuration not stated), the AC50 is 29.1 µM [rising, single point] under setting [2] and 29.1 µM [falling, single point] under setting [1]. On to `N/C(=N\c1nc2ccccc2o1)NC(=O)c1ccccc1Br`, for which the AC50 under setting [2] was 0.251 µM [falling, full curve, poor fit]. Still for that read-out and setting: for `CCOC(=O)c1c(C)c(C(=O)Nc2ccc3c(c2)OCO3)c(C)n1C` the value was 0.112 µM [rising, full curve, poor fit].

Take `O=C(COC(=O)c1ccc(Cl)c(S(=O)(=O)N2CCCC2)c1)NCc1ccccc1`: under setting [2], the AC50 is 9.2 µM [rising, partial curve]. On the same count and under the same terms, next, `S=C(NCc1ccccc1Cl)Nc1ccccc1Cl`: 35.5 µM [falling, single point]. Consider `Cc1nn(-c2ccc(Cl)cc2)c(=O)c2ccccc12`, for which the AC50 under setting [2] is 35.5 µM [falling, single point].

As for `CC(C)CN1C(=O)C(=O)N(CC(=O)c2ccc3c(c2)CCCC3)C1=O`, the concentration at half-maximal activity (AC50) under setting [2] is 6.51 µM [rising, partial curve, poor fit]. Same read-out and setting: for `Cc1ccccc1Nc1sc(C(=O)c2ccccc2)c(N)c1C(=O)NCc1ccc(Cl)cc1` the value was 7.08 µM [falling, partial curve, poor fit]; for `CSc1ccc(CN2CCN(S(=O)(=O)Cc3ccccc3)CC2)cc1`, 25.1 µM [falling, single point].

As to `O=C(CSCC(=O)Nc1ccc2ccccc2c1)NCc1ccccc1`, the AC50 under setting [2] was 12.6 µM [falling, single point].

Take `CCCCN(C(=O)Cn1ncc(Cl)c(Cl)c1=O)c1c(N)n(CC(C)C)c(=O)[nH]c1=O`: under setting [2], the AC50 was 35.5 µM [falling, single point]. On the same count and under the same terms, for `COc1ccc(N2CC(C(=O)NCc3n[nH]c(=O)c4ccccc34)CC2=O)cc1` (configuration not stated) the value was 7.31 µM [rising, partial curve]; for `O=C(c1cccnc1)N(c1cc2sc(=O)oc2c2ccccc12)S(=O)(=O)c1ccccc1`, 11.6 µM [falling, partial curve]; for `O=C(COC(=O)c1cccc(-n2cnnn2)c1)c1ccc(F)cc1`, 7.31 µM [falling, partial curve]. On the same count and under the same terms, next, `O=C(Nc1nc(-c2ccccc2)cs1)c1cccc([N+](=O)[O-])c1`: 17.8 µM [falling, single point]; `CCN1CCN(C(=O)c2cn(CC)c3ccc(S(=O)(=O)N(C)C)cc3c2=O)CC1`: 29.1 µM [rising, single point]; `CCOC(=O)c1cnc2c(-c3ccccc3)cnn2c1C`: 0.447 µM [falling, full curve, poor fit]. Still for that read-out and setting: next, `O=C(NC1CCCCC1)C(=S)NC1CCCCC1`: 2.82 µM [rising, full curve, poor fit]. Turning to `COc1ccc(C2CC(c3ccccc3)=NN2S(=O)(=O)c2ccccc2)c(OC)c1` (configuration not stated), the AC50 under setting [2] is 1.3 µM [rising, full curve, poor fit]. Still for that read-out and setting: next, `CN1CCC(Oc2ccc(Sc3ccccc3)cc2)CC1`: 16.4 µM [falling, single point]; `Cc1ccccc1-c1nc2sc3c(c2c(=O)o1)CCC3`: 2.31 µM [falling, full curve, poor fit]; `Fc1ccc(/C=C\c2nccc3c2[nH]c2ccccc23)cc1`: 11.2 µM [falling, single point]. Same read-out and setting: next, `COC(=O)C1=C(C)Nc2ncnn2C1c1ccccn1` (configuration not stated): 0.146 µM [falling, full curve]. Still for that read-out and setting: for `O=c1oc2ccccc2c(NC2CCCCC2)c1NS(=O)(=O)c1ccc(Br)cc1` the value was 7.94 µM [falling, partial curve].
